Test results published in the supplement of paper PMC12067093, “Discovery and optimisation of a covalent ligand for TRIM25 and its application to targeted protein ubiquitination” (Chemical Science, 2025).
The list shows a part of the results.

By UniProt entry, the sequences of proteins in these tests, tags left out. Where a name states a change or a piece, a line headed by the entry shows the natural chain unless it says otherwise.
UniProt Q92785, whole entry, looked up: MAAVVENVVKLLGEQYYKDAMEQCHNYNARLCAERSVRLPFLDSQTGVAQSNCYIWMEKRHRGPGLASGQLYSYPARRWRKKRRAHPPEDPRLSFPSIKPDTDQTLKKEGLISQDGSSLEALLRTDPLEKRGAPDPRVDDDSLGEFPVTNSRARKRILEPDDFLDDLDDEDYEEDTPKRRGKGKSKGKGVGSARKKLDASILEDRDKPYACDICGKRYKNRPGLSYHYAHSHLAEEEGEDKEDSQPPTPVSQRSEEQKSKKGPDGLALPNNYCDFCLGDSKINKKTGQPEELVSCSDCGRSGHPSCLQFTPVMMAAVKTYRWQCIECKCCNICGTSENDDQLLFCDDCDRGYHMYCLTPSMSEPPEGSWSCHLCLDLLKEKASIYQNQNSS
UniProt Q5JSL3: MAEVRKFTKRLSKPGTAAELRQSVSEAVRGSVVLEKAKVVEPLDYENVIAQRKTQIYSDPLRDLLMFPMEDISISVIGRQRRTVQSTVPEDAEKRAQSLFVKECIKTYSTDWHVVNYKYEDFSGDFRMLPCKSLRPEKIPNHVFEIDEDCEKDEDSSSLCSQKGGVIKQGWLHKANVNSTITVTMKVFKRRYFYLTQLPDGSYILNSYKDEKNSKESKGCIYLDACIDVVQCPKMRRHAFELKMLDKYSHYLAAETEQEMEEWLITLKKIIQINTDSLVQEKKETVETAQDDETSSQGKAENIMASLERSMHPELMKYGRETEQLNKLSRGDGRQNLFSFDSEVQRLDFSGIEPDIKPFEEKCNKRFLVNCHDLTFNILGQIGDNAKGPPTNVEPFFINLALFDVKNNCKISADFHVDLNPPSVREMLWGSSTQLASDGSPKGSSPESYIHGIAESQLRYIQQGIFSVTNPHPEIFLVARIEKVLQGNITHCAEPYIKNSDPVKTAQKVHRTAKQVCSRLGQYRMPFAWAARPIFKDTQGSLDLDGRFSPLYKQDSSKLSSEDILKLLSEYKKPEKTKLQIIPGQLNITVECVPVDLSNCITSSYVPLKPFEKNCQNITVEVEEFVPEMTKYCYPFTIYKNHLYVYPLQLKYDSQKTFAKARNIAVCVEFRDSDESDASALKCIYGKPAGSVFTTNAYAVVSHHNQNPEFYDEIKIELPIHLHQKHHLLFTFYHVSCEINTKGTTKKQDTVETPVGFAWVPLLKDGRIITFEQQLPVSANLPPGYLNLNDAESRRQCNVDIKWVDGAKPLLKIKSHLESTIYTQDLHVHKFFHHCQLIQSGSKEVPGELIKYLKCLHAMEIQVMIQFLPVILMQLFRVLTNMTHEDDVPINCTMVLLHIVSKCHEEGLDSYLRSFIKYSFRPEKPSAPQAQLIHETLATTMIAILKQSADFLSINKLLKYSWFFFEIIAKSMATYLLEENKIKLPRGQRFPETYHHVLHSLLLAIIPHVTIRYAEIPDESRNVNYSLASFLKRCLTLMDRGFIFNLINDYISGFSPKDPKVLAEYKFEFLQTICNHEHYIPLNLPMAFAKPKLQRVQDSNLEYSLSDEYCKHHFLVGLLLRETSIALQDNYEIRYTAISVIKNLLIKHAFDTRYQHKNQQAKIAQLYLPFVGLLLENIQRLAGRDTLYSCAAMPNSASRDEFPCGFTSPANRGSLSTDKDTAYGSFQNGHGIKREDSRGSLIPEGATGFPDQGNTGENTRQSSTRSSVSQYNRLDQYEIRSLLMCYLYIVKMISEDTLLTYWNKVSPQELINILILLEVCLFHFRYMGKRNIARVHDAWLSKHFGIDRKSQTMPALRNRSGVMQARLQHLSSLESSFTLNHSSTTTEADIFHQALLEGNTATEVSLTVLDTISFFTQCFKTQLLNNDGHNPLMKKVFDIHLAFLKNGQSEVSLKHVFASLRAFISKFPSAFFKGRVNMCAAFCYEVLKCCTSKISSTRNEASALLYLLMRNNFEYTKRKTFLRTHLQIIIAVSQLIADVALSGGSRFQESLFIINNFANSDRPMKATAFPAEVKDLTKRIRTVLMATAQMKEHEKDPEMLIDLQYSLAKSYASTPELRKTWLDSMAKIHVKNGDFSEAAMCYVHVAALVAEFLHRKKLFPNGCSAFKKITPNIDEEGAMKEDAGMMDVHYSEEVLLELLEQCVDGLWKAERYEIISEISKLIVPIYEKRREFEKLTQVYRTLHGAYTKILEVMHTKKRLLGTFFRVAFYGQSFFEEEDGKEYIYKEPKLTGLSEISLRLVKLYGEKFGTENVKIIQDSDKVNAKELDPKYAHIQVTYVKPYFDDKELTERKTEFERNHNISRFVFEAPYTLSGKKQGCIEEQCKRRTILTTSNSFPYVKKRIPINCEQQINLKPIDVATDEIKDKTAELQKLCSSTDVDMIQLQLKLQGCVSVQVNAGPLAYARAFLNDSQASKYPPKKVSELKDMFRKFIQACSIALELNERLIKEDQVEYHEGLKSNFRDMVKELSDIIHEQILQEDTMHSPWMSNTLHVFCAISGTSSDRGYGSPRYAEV
UniProt P23919: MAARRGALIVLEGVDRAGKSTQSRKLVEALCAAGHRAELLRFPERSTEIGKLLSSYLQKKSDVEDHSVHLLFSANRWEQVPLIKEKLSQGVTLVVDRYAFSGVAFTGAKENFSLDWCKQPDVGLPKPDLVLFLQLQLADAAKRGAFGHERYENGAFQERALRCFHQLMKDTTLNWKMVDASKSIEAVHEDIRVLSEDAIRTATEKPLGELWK
UniProt P60981: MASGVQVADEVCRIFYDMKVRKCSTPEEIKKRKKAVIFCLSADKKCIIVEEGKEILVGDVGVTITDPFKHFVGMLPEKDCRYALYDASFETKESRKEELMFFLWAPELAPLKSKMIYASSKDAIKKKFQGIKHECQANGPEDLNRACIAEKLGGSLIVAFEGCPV
UniProt P26358: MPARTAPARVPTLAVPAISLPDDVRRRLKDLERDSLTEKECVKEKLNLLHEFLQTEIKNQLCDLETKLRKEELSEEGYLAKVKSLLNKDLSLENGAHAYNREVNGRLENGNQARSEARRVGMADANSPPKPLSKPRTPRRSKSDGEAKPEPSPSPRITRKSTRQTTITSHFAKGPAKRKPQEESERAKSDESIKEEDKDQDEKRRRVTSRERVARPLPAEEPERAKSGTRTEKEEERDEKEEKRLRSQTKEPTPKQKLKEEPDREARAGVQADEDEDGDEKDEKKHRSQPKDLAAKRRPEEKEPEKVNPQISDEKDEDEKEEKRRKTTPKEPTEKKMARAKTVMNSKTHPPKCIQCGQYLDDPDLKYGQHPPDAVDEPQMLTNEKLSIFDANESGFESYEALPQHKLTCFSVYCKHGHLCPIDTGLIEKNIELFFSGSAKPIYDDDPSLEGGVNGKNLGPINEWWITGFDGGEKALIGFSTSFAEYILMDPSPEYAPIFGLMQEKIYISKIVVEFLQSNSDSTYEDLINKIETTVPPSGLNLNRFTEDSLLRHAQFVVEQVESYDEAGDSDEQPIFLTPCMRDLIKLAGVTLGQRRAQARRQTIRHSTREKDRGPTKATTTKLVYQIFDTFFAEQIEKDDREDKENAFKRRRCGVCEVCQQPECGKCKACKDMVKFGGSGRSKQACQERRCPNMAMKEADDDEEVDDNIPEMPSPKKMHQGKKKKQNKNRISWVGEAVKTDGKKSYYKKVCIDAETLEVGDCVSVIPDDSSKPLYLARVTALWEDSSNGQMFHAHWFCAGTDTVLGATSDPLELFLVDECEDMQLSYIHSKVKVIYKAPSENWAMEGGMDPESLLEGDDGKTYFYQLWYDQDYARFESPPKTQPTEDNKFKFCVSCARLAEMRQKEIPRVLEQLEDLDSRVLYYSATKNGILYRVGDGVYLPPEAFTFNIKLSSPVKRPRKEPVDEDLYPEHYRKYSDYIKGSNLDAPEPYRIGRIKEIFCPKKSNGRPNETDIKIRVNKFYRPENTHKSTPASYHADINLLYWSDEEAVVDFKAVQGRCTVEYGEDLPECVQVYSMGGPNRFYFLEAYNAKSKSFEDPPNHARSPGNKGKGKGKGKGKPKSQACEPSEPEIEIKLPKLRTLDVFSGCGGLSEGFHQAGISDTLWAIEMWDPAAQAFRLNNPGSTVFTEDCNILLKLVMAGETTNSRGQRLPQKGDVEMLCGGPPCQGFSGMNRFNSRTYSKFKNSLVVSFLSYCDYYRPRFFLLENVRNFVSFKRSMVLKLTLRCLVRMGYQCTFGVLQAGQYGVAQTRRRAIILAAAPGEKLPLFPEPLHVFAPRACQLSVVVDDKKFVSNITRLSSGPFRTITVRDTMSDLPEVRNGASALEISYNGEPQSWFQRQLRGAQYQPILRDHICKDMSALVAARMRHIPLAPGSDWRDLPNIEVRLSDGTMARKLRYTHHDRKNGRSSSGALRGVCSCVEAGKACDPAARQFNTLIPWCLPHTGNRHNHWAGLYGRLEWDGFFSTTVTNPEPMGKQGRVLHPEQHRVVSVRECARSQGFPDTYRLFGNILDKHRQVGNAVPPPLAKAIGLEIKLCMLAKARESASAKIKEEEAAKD
UniProt Q92608: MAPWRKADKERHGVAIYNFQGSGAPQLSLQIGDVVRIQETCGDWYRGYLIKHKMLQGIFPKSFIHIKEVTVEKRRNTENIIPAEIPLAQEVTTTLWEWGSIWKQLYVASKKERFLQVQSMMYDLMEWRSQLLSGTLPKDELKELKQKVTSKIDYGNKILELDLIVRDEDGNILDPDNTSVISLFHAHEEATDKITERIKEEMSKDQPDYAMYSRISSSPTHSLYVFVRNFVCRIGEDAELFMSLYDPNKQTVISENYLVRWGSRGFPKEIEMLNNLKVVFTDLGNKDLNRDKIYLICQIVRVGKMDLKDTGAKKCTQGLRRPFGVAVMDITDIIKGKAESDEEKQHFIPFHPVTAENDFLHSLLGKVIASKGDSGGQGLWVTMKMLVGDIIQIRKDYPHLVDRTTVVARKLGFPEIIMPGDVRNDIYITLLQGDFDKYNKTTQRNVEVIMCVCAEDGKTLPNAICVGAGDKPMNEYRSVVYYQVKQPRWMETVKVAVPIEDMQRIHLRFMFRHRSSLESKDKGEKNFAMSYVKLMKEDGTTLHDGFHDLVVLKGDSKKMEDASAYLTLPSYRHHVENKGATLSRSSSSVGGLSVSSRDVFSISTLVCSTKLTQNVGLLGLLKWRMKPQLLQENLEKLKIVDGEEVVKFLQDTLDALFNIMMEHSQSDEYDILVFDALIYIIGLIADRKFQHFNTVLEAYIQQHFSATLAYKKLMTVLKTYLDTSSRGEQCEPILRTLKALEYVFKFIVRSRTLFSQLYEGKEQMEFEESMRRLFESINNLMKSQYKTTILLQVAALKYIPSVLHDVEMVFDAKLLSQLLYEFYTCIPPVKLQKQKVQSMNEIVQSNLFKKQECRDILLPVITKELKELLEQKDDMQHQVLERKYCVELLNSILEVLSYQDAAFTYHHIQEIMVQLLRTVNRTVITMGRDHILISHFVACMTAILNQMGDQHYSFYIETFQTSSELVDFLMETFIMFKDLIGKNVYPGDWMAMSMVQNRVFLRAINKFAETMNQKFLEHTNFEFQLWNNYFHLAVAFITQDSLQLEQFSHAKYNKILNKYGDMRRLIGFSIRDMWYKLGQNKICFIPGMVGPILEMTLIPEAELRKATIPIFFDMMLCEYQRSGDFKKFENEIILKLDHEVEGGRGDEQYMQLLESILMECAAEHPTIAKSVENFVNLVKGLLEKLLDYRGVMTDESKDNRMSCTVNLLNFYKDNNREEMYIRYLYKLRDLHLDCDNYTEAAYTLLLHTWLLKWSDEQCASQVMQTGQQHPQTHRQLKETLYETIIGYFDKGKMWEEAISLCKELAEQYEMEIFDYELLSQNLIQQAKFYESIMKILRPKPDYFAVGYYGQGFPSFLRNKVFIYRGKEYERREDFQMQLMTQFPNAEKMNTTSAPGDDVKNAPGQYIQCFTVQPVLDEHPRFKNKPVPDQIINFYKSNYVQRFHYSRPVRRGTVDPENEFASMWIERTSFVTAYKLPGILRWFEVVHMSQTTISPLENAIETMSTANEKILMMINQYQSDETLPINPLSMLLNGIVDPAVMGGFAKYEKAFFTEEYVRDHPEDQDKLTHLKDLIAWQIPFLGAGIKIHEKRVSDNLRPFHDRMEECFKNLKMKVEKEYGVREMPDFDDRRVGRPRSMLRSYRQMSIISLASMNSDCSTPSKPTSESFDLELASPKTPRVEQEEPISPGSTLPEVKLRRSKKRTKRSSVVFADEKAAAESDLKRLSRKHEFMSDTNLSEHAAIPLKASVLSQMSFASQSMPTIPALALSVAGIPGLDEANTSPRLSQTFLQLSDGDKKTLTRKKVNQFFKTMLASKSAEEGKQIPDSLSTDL

Compound: CC1Cc2ccccc2N1C(=O)C1CCCN(C1)C(=O)CCl (mixture of isomers) [TRIM25 ligand 11 (diastereomer mixture)]
Experiment: probe-labelled cysteine peptide fold change vs DMSO (competition) (log2 fold change); higher = less target engagement (more negative = stronger competition)
Conditions: THP-1, incubation time: 4 h
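Note: competitive chemoproteomic profiling in live THP-1 cells with an iodoacetamide desthiobiotin (IA-DTB) probe, comparing probe-labelled peptide intensities in compound-treated cells against DMSO-treated controls.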

Row | Target | probe-labelled cysteine peptide fold change (10 µM) | probe-labelled cysteine peptide fold change (50 µM)
1 | DPF2_Q92785_298_TGQPEELVSCSDCGR (UniProt Q92785) | 0.26 | 0.181
2 | DSCR3_O14972_221_VETCGCAEGYAR (UniProt O14972) | 0.19 | 0.164
3 | DOCK11_Q5JSL3_1641_NGDFSEAAMCYVHVAALVAEFLHR (UniProt Q5JSL3) | -0.41 | 0.125
4 | DOCK11_Q5JSL3_835_FFHHCQLIQSGSK (UniProt Q5JSL3) | 0.204 | 0.163
5 | DOCK8_Q8NF50_685_LQTGSYCLPVALEK (UniProt Q8NF50) | -0.0908 | -0.032
6 | DOP1B_Q9Y3R5_1040_EACAVPEPQESGSEEHLPLSQFTTVDR (UniProt Q9Y3R5) | -0.00561 | -0.145
7 | DTYMK_P23919_163_CFHQLMK (UniProt P23919) | 0.245 | 0.1
8 | DSTN_P60981_12_ASGVQVADEVCR (UniProt P60981) | -0.0978 | -0.147
9 | DOCK8_Q8NF50_1471_VLVNSLNCDQSTTYLTHCFATLR (UniProt Q8NF50) | 0.253 | 0.308
10 | EAPP_Q56P03_262_AETDVEEIYHPVMCTECSTEVAVYDKDEVFHFFNVLASHS (UniProt Q56P03) | -0.0635 | -0.0165
11 | DYNC1H1_Q14204_4438_QDLADVVQVCEGK (UniProt Q14204) | 0.0826 | 0.0819
12 | DUSP27_Q5VZP5_912_SNSQKPETDTCSSLAVCDHYASGSR (UniProt Q5VZP5) | 0.0943 | -0.328
13 | DTX3L_Q8TDB6_175_VCGDFQDIER (UniProt Q8TDB6) | -0.0857 | 0.0555
14 | DYNC1I2_Q13409_484_AGISEMFEGHQGPITGIHCHAAVGAVDFSHLFVTSSFDWTVK (UniProt Q13409) | 0.401 | 0.0339
15 | DOK3_Q7L591_282+295_CHSGEGLFAFSTPCAPDLCR (UniProt Q7L591) | 0.251 | -0.532
16 | DUSP11_O75319_199_LIGVHCTHGLNR (UniProt O75319) | 0.196 | 0.0218
17 | DUS3L_Q96G46_315_LYLAPLTTCGNLPFRR (UniProt Q96G46) | -0.243 | -0.253
18 | DNMT1_P26358_1339_ACQLSVVVDDK (UniProt P26358) | 0.127 | -0.121
19 | DOK3_Q7L591_133_LADCVSVLPADGESCPR (UniProt Q7L591) | 0.0537 | 0.00634

Row | Target | probe-labelled cysteine peptide fold change (10 µM) | probe-labelled cysteine peptide fold change (50 µM)
20 | DTX3L_Q8TDB6_41_SSGGGECTVSTQEHEAPGTFR (UniProt Q8TDB6) | -0.0681 | -0.0561
21 | DNPH1_O43598_26_PALYFCGSIR (UniProt O43598) | -0.075 | -0.00676
22 | DPP9_Q86TI2_601_FWASMMEAASCPPDYVPPEIFHFHTR (UniProt Q86TI2) | -0.336 | -0.15
23 | DYNC1H1_Q14204_2712_IQFVGACNPPTDPGRK (UniProt Q14204) | 0.103 | 0.217
24 | DOCK2_Q92608_1258_WSDEQCASQVMQTGQQHPQTHR (UniProt Q92608) | 0.157 | -0.015
25 | DUSP9_Q99956_27_LLLLDCR (UniProt Q99956) | -0.0184 | 0.116
26 | DNMT3A_Q9Y6K1_818_LELQECLEHGR (UniProt Q9Y6K1) | 0.0266 | 0.103
27 | DOCK2_Q92608_607_DVFSISTLVCSTK (UniProt Q92608) | 0.0442 | 0.0173
28 | DTWD2_Q8NBA8_220_CLSTLECAAVALSILEK (UniProt Q8NBA8) | -0.0977 | 0.0807
29 | DYNC1H1_Q14204_2594_HEALLYTWLAEHKPLVLCGPPGSGK (UniProt Q14204) | -0.104 | -0.0762
30 | DSN1_Q9H410_65_GGNCDLSHQER (UniProt Q9H410) | 0.0986 | -0.0321
31 | DOCK8_Q8NF50_197_GPVTACDFDLR (UniProt Q8NF50) | -0.0826 | -0.209
32 | DSCR3_O14972_137_TCEFIVHSAPQK (UniProt O14972) | -0.0619 | 0.099
33 | EAF2_Q96CJ1_98_ECILIINHDTGECR (UniProt Q96CJ1) | -0.0897 | 0.01
34 | DPF2_Q92785_24_DAMEQCHNYNAR (UniProt Q92785) | -0.119 | -0.357
35 | DSTN_P60981_39_AVIFCLSADK (UniProt P60981) | -0.0558 | -0.00534
36 | DYNC1H1_Q14204_1888_CYLTMTQALEAR (UniProt Q14204) | 0.0467 | -0.173
37 | DUS3L_Q96G46_358_RHQCEDIFGVQLEGAFPDTMTK (UniProt Q96G46) | 0.0341 | 0.0134
38 | DNMT1_P26358_420_HGHLCPIDTGLIEK (UniProt P26358) | -0.0746 | -0.0779
